# Measured values as given in publication doi:10.1101/2023.07.11.548556.
# Protein sequences, listed by entry. Tags and fused reporters are not part of them. Residues count along the entry.
# UniProt Q07954, residues 20-4544: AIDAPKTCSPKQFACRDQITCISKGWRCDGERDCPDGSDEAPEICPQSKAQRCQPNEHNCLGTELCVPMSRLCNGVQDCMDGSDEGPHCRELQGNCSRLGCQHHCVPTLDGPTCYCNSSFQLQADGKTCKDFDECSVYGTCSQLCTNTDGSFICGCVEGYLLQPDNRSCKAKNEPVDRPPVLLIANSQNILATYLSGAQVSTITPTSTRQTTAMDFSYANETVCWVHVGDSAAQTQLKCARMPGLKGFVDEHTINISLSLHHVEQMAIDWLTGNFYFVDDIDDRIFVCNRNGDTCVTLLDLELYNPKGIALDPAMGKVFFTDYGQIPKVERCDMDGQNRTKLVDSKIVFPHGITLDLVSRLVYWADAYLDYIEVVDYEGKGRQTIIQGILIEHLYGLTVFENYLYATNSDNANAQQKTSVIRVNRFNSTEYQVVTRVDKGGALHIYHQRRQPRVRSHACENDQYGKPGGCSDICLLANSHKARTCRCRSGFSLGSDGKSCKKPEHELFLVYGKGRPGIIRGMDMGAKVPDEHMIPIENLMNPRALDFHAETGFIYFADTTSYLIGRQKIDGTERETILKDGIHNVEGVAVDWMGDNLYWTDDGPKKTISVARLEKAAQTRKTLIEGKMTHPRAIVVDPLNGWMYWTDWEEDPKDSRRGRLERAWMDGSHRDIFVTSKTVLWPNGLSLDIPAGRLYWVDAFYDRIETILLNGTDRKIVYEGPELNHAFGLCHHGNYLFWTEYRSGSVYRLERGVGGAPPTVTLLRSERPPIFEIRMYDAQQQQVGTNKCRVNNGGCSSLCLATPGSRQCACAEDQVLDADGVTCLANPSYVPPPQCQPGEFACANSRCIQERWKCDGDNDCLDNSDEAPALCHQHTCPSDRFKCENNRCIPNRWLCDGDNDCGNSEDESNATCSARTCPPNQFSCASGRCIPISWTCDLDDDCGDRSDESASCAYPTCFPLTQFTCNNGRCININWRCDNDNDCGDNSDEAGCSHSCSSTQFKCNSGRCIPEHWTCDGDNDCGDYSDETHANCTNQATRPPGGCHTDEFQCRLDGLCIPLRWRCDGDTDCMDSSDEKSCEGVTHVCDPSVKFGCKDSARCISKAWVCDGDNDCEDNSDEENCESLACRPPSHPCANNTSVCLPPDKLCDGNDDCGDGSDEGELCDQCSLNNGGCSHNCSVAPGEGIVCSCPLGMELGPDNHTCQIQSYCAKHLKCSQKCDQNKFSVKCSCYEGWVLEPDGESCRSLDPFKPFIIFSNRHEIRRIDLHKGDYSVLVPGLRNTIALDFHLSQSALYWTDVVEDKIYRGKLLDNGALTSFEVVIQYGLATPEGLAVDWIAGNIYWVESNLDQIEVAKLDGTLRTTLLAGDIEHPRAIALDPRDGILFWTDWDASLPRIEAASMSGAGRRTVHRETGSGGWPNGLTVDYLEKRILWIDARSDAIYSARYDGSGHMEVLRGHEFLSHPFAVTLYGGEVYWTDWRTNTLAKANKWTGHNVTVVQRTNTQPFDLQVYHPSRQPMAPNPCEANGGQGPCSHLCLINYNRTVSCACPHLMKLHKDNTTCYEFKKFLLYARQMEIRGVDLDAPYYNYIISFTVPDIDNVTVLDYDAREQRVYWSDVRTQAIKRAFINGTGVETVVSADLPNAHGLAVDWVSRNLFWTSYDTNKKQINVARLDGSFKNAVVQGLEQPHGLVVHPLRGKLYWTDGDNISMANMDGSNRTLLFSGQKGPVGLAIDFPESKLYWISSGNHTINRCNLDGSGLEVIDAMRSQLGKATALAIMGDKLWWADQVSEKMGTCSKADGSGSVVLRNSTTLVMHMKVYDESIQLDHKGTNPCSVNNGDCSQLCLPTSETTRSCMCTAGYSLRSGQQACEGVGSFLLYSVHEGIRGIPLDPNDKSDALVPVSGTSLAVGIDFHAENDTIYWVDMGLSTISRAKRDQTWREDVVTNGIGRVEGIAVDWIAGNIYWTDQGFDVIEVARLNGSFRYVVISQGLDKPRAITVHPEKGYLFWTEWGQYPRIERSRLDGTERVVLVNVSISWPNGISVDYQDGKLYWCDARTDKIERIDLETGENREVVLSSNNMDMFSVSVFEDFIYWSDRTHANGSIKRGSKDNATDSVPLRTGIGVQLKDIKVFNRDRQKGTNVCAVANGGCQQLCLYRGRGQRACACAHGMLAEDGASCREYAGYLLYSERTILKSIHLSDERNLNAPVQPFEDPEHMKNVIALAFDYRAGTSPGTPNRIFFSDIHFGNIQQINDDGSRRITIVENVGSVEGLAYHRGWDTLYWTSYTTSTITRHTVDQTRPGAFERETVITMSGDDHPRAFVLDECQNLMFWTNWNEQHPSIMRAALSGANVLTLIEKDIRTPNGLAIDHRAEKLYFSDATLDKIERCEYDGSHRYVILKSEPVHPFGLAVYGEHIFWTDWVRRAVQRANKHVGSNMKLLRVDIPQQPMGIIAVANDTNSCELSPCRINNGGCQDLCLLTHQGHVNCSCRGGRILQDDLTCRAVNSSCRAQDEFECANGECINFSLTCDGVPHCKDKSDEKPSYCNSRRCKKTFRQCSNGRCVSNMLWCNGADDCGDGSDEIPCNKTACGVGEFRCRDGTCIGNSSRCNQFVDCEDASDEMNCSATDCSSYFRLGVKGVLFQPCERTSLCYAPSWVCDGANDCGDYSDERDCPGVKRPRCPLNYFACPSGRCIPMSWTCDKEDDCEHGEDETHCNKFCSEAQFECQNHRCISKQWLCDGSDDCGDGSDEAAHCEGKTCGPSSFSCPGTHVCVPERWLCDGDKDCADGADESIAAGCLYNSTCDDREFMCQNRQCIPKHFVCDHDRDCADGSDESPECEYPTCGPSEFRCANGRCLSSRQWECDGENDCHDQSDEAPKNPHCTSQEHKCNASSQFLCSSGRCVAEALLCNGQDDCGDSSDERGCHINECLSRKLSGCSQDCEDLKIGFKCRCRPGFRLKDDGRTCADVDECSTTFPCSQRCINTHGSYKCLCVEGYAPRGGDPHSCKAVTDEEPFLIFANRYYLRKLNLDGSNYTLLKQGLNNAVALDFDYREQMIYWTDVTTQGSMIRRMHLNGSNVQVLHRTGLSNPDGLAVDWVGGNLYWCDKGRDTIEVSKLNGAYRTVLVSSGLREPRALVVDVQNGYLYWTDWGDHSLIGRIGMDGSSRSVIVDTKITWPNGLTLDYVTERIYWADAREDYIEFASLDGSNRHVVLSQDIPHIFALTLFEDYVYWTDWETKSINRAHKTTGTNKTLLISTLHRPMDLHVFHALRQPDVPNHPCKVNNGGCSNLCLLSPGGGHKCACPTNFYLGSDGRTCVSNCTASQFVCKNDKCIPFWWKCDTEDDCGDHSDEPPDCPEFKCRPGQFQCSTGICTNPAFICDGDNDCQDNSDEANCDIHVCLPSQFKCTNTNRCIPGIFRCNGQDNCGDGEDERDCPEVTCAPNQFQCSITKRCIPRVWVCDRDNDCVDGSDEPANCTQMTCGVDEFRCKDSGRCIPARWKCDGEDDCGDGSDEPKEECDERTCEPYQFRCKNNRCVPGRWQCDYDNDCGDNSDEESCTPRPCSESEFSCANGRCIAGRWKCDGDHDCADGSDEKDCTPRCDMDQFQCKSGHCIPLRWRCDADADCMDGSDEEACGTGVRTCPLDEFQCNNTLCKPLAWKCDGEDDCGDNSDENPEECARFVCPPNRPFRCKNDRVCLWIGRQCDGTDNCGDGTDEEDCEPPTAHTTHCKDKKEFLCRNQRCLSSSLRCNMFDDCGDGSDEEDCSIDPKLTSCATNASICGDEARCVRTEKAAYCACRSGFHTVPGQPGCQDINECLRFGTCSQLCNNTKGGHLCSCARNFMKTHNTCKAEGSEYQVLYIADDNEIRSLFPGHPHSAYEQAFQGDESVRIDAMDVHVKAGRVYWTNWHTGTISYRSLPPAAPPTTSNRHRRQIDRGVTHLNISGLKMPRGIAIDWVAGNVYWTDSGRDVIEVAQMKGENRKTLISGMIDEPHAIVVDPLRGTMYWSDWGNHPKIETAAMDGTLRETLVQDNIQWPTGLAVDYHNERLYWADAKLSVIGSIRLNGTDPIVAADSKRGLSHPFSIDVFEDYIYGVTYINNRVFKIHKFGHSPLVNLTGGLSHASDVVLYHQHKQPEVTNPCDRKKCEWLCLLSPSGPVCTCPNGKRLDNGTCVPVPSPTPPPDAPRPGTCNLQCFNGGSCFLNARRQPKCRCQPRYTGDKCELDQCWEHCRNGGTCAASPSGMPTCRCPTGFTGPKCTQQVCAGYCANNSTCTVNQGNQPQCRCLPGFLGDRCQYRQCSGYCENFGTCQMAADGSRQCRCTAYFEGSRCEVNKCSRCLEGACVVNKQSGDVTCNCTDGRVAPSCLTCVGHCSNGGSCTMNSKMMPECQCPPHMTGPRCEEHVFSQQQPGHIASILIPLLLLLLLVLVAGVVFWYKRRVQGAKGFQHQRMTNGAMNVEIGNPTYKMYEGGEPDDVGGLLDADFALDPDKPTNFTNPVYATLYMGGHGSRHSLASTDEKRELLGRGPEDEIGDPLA
# UniProt P56704, residues 19-352: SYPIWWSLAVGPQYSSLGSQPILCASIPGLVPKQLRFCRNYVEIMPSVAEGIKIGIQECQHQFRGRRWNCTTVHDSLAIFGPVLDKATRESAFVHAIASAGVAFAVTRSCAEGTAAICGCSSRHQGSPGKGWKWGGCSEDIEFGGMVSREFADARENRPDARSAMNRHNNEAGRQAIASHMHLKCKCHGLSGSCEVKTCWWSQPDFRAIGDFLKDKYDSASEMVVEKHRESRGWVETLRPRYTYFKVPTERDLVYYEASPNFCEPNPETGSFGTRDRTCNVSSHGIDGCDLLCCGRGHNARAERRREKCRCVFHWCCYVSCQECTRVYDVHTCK
# No constants are given. Whether binding was seen depends on the method and setting.
# Molecular target: Low-density lipoprotein receptor-related protein 1 (LRP1), purified human full-length (human) (UniProt Q07954)
# Experiment: ELISA
substance,measurement,value
Wnt3a (from UniProt P56704 19-352) (ligand),binding,no binding (tested: >200 nM)
